Source: article PMC12704088
No constants are given. Whether binding was seen depends on the method and setting. In cells and extracts the contact can be indirect. Some results given as binding are weak or reduced against the parent protein; the word gives no strength.

By UniProt entry, the sequences of proteins in these tests, tags left out.
UniProt P21333: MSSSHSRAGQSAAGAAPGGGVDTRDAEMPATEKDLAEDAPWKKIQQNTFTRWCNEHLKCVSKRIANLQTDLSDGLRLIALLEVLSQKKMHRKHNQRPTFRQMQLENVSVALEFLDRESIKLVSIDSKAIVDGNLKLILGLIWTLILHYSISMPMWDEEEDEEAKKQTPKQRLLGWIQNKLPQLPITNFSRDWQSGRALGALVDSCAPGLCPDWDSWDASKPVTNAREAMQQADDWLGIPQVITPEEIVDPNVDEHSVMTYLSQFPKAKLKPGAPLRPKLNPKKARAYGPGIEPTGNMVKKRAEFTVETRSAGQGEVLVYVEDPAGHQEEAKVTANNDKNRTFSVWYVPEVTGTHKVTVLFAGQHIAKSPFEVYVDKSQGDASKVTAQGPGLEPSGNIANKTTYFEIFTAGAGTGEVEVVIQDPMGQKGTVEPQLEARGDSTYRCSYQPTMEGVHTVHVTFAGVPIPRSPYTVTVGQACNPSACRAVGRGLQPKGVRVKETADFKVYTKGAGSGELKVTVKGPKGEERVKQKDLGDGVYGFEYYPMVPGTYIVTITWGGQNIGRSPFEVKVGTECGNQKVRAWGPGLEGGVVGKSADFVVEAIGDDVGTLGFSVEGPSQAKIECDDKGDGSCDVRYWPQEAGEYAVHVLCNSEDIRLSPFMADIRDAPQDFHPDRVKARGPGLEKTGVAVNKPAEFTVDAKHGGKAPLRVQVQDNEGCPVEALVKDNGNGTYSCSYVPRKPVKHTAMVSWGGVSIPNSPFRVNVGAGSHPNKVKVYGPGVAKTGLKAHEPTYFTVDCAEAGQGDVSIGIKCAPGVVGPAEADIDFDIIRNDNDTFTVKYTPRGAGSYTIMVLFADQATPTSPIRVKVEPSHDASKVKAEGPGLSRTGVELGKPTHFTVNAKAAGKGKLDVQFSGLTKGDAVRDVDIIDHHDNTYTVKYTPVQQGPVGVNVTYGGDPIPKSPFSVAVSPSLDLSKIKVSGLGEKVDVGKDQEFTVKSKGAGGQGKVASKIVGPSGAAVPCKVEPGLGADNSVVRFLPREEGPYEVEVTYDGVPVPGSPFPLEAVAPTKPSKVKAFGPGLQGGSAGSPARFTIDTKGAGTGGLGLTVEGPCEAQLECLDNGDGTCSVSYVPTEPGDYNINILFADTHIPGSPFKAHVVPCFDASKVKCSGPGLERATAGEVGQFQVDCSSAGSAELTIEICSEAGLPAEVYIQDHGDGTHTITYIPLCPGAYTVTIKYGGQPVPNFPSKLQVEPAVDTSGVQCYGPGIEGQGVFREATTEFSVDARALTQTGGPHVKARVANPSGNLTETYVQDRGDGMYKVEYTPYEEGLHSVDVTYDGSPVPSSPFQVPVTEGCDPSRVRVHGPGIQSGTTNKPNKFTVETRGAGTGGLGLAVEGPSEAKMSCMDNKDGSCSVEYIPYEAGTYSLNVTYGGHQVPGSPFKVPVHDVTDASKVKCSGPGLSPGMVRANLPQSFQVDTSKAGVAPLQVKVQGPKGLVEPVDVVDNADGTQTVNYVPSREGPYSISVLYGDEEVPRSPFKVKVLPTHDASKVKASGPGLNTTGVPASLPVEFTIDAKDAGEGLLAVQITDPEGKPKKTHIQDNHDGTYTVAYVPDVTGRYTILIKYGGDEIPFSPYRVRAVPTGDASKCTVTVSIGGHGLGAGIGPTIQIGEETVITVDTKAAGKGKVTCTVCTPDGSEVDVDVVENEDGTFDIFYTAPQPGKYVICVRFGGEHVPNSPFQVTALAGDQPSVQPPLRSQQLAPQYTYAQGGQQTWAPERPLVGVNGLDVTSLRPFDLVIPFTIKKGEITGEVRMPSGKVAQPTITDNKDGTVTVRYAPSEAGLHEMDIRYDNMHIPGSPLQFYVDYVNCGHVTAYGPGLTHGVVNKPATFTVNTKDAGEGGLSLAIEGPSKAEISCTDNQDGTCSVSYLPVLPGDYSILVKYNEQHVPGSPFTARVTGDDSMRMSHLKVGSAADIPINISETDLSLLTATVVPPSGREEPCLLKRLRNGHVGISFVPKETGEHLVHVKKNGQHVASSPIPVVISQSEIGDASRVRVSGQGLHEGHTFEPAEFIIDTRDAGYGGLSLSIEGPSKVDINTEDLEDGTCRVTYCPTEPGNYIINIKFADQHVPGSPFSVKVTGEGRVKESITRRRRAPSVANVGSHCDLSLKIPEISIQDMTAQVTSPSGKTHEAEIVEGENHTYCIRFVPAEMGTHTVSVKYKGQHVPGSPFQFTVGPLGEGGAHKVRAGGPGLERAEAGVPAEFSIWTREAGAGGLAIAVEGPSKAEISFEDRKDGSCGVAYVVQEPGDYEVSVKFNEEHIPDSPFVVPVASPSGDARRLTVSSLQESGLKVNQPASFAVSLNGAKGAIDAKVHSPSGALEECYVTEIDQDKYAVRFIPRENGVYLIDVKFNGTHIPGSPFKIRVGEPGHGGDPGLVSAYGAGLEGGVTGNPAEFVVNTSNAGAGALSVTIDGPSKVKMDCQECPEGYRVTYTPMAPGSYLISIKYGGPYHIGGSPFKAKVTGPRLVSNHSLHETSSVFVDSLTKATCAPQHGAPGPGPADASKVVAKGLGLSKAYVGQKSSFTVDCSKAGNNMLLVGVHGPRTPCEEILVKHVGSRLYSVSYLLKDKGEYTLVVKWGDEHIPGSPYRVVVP

Biological target: Filamin A (FLNA), endogenous (human (endogenous in HepG2, HLF, HuH7, Hep3B and human organoids)) (UniProt P21333)
Experiment: proximity ligation; DuoLink in situ PLA with anti-DLC1, anti-FLNA and anti-MRTF-A antibodies in fixed HepG2, HLF, HuH7, Hep3B cells and monolayers of human organoids; treatments: HA-FLNA-ABD or GFP-DLC1 expression, tat-DLC1bp, HA-100, EGF, LPA, Latrunculin B, S14C-actin, RhoAV14

binding: binds
B1: Myocardin-related transcription factor A (MRTF-A), endogenous (protein, UniProt Q969V6 1-931)
chain: MPPLKSPAAFHEQRRSLERARTEDYLKRKIRSRPERSELVRMHILEETSAEPSLQAKQLKLKRARLADDLNEKIAQRPGPMELVEKNILPVESSLKEAIIVGQVNYPKVADSSSFDEDSSDALSPEQPASHESQGSVPSPLEARVSEPLLSATSASPTQVVSQLPMGRDSREMLFLAEQPPLPPPPLLPPSLTNGTTIPTAKSTPTLIKQSQPKSASEKSQRSKKAKELKPKVKKLKYHQYIPPDQKQDRGAPPMDSSYAKILQQQQLFLQLQILNQQQQQHHNYQAILPAPPKSAGEALGSSGTPPVRSLSTTNSSSSSGAPGPCGLARQNSTSLTGKPGALPANLDDMKVAELKQELKLRSLPVSGTKTELIERLRAYQDQISPVPGAPKAPAATSILHKAGEVVVAFPAARLSTGPALVAAGLAPAEVVVATVASSGVVKFGSTGSTPPVSPTPSERSLLSTGDENSTPGDTFGEMVTSPLTQLTLQASPLQILVKEEGPRAGSCCLSPGGRAELEGRDKDQMLQEKDKQIEALTRMLRQKQQLVERLKLQLEQEKRAQQPAPAPAPLGTPVKQENSFSSCQLSQQPLGPAHPFNPSLAAPATNHIDPCAVAPGPPSVVVKQEALQPEPEPVPAPQLLLGPQGPSLIKGVAPPTLITDSTGTHLVLTVTNKNADSPGLSSGSPQQPSSQPGSPAPAPSAQMDLEHPLQPLFGTPTSLLKKEPPGYEEAMSQQPKQQENGSSSQQMDDLFDILIQSGEISADFKEPPSLPGKEKPSPKTVCGSPLAAQPSPSAELPQAAPPPPGSPSLPGRLEDFLESSTGLPLLTSGHDGPEPLSLIDDLHSQMLSSTAILDHPPSPMDTSELHFVPEPSSTMGLDLADGHLDSMDWLELSSGGPVLSLAPLSTTAPSLFSTDFLDGHDLQLHWDSCL
